Library screen at single concentrations

The chains behind the UniProt entries cited, without tags or fusion partners.
UniProt P9WNZ1, whole entry: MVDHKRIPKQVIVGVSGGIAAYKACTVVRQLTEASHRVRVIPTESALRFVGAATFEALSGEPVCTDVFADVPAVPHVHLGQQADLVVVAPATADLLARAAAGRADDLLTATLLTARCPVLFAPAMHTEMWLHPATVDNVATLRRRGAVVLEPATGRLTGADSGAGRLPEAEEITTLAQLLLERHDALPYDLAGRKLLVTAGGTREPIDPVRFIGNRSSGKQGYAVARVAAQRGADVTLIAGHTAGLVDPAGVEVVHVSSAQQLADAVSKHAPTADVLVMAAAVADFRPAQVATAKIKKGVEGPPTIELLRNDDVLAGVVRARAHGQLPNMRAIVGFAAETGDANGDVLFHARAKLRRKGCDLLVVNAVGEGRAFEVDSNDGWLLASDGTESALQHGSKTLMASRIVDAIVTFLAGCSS
UniProt P9WFT3, whole entry: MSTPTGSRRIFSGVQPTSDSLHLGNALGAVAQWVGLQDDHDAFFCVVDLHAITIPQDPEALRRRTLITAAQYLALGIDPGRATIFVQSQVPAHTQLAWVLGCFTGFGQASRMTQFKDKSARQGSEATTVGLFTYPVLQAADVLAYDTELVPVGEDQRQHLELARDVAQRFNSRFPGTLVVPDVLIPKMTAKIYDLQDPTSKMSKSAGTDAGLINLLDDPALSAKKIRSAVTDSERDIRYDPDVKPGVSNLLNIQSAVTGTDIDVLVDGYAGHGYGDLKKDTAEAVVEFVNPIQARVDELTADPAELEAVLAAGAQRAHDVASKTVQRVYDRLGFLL
UniProt I6X8D2, whole entry: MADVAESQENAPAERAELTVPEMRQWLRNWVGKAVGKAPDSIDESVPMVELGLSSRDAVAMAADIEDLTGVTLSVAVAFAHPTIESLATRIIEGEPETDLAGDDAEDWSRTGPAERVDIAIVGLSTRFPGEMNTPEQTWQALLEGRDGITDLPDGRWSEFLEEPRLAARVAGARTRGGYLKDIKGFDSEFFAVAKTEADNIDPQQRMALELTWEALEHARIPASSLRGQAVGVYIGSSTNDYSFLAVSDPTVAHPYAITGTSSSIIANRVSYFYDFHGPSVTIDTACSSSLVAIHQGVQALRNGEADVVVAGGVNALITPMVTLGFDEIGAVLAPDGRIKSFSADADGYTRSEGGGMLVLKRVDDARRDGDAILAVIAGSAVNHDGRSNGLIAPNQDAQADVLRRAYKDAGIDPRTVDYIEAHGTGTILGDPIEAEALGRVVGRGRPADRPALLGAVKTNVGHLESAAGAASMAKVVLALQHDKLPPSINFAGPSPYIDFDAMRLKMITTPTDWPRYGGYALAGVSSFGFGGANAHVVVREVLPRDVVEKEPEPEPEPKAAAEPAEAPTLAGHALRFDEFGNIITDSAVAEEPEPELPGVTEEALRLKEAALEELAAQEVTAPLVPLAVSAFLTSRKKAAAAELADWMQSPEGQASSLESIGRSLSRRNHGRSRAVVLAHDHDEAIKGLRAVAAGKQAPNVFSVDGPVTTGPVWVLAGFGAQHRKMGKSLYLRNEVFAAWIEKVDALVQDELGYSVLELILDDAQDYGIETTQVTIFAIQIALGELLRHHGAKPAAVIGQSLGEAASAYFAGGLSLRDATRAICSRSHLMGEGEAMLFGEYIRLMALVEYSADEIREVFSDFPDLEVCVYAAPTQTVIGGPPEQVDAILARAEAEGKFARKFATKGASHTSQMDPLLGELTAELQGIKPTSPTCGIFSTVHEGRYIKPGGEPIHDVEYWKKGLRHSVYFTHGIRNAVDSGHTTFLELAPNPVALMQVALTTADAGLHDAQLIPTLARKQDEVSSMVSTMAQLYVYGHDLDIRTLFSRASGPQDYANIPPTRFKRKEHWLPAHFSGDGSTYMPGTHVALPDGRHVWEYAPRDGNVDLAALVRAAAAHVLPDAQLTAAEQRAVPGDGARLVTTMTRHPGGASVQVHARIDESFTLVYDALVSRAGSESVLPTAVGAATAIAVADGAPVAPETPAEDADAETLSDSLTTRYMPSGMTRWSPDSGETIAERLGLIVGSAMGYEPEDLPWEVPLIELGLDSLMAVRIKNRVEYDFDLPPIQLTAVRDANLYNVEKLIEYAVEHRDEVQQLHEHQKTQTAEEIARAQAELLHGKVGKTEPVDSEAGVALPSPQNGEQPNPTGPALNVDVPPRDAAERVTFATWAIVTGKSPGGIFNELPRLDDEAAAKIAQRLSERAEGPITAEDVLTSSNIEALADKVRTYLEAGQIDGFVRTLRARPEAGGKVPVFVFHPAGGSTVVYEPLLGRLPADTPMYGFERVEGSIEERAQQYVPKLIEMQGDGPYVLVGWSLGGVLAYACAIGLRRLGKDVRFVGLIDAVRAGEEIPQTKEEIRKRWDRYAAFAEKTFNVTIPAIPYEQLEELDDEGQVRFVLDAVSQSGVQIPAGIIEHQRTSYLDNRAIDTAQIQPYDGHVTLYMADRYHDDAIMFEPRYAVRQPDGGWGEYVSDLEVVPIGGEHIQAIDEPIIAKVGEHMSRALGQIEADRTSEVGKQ

The filed quantity is “Percent Effect” (%).
How 0% and 100% were set is not recorded. Most values in the screen are low, and negative values occur.
The compounds are a random part of those screened.
Two or more numbers in one place are separate tests of the same structure; such repeats can differ widely.
A dash means the value is not listed here; it may have been measured.

A: 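Enzyme assay of CoaBC with a phosphate dye (Biomol Green) read at 650 nm. Target: Coenzyme A biosynthesis protein CoaBC, Mycobacterium tuberculosis (UniProt P9WNZ1). Concentration: 30 µM. Direction is inferred from only a few compounds that gave an IC50; most scored high, so higher reads as stronger inhibition. Most strong results did not repeat in a second test. Of about 67,000 compounds tested this way, about 40 (0.06%) reached 50% or more in at least one test.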
B: 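Tryptophan-tRNA ligase, Mycobacterium tuberculosis (UniProt P9WFT3). Enzyme assay of tryptophanyl-tRNA synthetase; the read-out is not stated. Concentration: 10 µM. Direction is not recorded; retested compounds ran higher, which suggests that high means inhibition. Of about 65,000 compounds tested this way, about 64 (0.098%) reached 50% or more in at least one test.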
C: 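Polyketide synthase Pks13, Mycobacterium tuberculosis (UniProt I6X8D2). Enzyme assay of the thioesterase domain of polyketide synthase 13; the read-out is not stated. Tested at 30 µM. Higher reads as stronger inhibition (inferred from which compounds were picked for retests). About 67,000 compounds were tested under these conditions; 0.46% (about 300) showed 50% or more at least once.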

| SMILES | A | B | C |
|---|---|---|---|
| `COCCN1CCCC12CCN(c1ncccn1)CC2` | -3.158 | -5.339 | -40.16 |
| `CCN(C)S(=O)(=O)N1CCCC(c2nc(-c3ccccc3)c[nH]2)C1` (stereo not given) | -5.353 | 0.764 | -35.53 |
| `CNc1ccnc(NCC(=O)Nc2cc(C)ccc2OC)n1` | -0.6494 | -1.449 | -10.71 |
| `Cc1nc(C)c(C(=O)N2CCCC2c2nc(O)cc(C(C)C)n2)s1` (stereo not given) | 11.19 | -1.681 | -9.321 |
| `CCn1cnnc1CNC(=O)N1CCN(Cc2ccco2)CC1` | 0.7833 | -1.505 | -7.286 |
| `Cc1ccc(Br)cc1NC(=O)NCC(O)CO` (stereo not given) | -7.172 | -3.971 | 37.49 |
| `Cc1ccc2c(c1)OC(C)CN2C(=O)Cc1ccc(C)nc1` (stereo not given) | -5.03 | 5.121 | -30.92 |
| `COc1cccc(-c2cc(NCC(=O)O)nc3[nH]ccc23)n1` | -2.337 | -5.891 | 58.28 |
| `Cc1cc(C(=O)N2C[C@@H]3COC[C@]3(COCc3cccnc3)C2)no1` | -0.8872 | 6.064 | -28.52 |
| `NS(=O)(=O)c1ccc(CC(=O)N2CCCC(n3cccn3)C2)cc1` (stereo not given) | 7.127 | 0.895 | 2.424 |
| `CCCc1n[nH]c(C2CN(Cc3ncc[nH]3)CCO2)n1` (stereo not given) | -3.99 | -0.000008 | -11.6 |
| `COc1nc(C)ccc1CNc1cc(N2CCCC2CO)ncn1` (stereo not given) | -3.636 | -2.206 | -9.294 |
| `CC(C(=O)Nc1ccc(N2CCCC2)nc1)n1cncn1` (stereo not given) | 6.287 | -2.739 | 3.432 |
| `CCOc1cccc(C(=O)NCCC(=O)NCc2ccncc2)c1` | 0.1318 | 19 | -12.79 |
| `Cc1ccc(C2CCCN2S(=O)(=O)N(C)Cc2cnn(C)c2)o1` (stereo not given) | -2.991 | 4.497 | 15.76 |
| `CCN1CCOCC12CCN(c1ccc(C#N)cc1)CC2` | - | 0.5394 | -23.06 |
| `COc1ccc(OC)c(CNCc2c(C(C)C)nn(C)c2N(C)C)c1` | 6.65 | 0.728 | -2.153 |
| `CN1CCC(C(=O)NCCC2CN(c3cnn(C)c(=O)c3)CCO2)CC1` (stereo not given) | 10.1 | 6.323 | - |
| `CC(C)(C)n1ncc2c1NC(=O)CSC2c1ccsc1` (stereo not given) | -0.9639 | 5.113 | -6.023 |
| `Cc1cccc2[nH]c(C3CCN(C(=O)c4ccnn4C)CC3)nc12` | 0.4545 | -2.9 | 2.85 |
| `CN(CCCNC(=O)C1CCc2cn[nH]c2C1)c1ccc(F)cc1` (stereo not given) | 11.28 | 12.92 | -12.25 |
| `NC(=O)C1CN(C(=O)Nc2ccccc2SC(F)(F)F)CCO1` (stereo not given) | 10.12 | -2.43 | -3.819 |
| `CC(C)(C)c1ncc(C(=O)NCCNc2ncccn2)s1` | 4.47 | -5.503 | 0.4889 |
| `CC(C)c1nc(CN(C)Cc2ncccc2C(=O)O)cs1` | 2.676 | -2.397 | -14.26 |
| `COc1cccc(OC)c1C(=O)N1CC(=O)N(C2CCC2)CC(O)C1` (stereo not given) | -0.2421 | - | 9.479 |
| `O=C(C1CCN(c2nc3nc[nH]c(=O)c3s2)CC1)N1CCCCC1` | 2.795 | 0.9646 | -8.921 |
| `CC(C)C(O)CNC(=O)Nc1cccc(-c2nccs2)c1` (stereo not given) | 6.364 | -5.056 | -3.957 |
| `COc1ccc(Cl)cc1C(=O)N1C[C@H](C(C)C)[C@@H](N)C1` | 5.825 | 6.056 | -8.268 |
| `c1cc(-c2nc(CN3CCn4c(nnc4C4CC4)C3)cs2)cs1` | 6.995 | 1.262 | -6.837 |
| `Cc1occc1C(=O)N1CCC2(CCCN(CC3CC3)C2=O)C1` (stereo not given) | 7.993 | -3.936 | -26.29 |
| `Cc1cc(C)nc(N2CCC(C(=O)Nc3n[nH]c(C)n3)CC2)n1` | -14.58 | 1.699 | -1.7 |
| `COCC(=O)N(C)Cc1ccc(OCc2cccs2)cc1` | -3.64 | -16.53 | -39.51 |
| `COc1cc(C(C)=O)ccc1OCC(=O)c1cccn1C` | 2.357 | 0.5161 | -2.715 |
| `N#CCCN(Cc1ccccn1)C(=O)Nc1cccc(F)c1` | 2.784 | 0.374 | -45.77 |
| `CCN1C(=O)C(c2ccccc2)CC12CCN(S(C)(=O)=O)CC2` (stereo not given) | 2.036 | -4.931 | - |
| `c1ccc2oc(CCCN3CCCCC3Cn3cncn3)nc2c1` (stereo not given) | 8.333 | -0.7524 | 58.42 |
| `Cc1cc(CC(C)NC(=O)Cc2cc(F)ccc2C)[nH]n1` (stereo not given) | 0.8537 | 1.987 | -29.44 |
| `O=C(c1ncncc1Cl)N1CCC2(CCCC2)CC1` | 1.21 | -6.174 | -2.312 |
| `Cc1ccccc1C(=O)N1CC[C@@H]2CN(c3ncccn3)CCO[C@@H]2C1` | 0.5 | -6.099 | -7.052 |
| `COc1ccccc1CN1CCC2(CCC(C(=O)N(C)C)O2)CC1` (stereo not given) | 4.762 | -5.669 | -29.96 |
| `N#Cc1ccc(OC[C@]23COC[C@H]2CN(c2ncccn2)C3)nc1` | -7.522 | -7.535 | -26.66 |
| `CNC(=O)c1cc(C)ccc1NCc1cn2cc(C)ccc2n1` | -0.5612 | 1.917 | 25.73 |
| `O=C(c1cc2cc(F)ccc2[nH]1)N1CCCCC1Cn1cccn1` (stereo not given) | 48.41 and 8.763 | -8.047 | -35.4 |
| `CC(CN1CCCC1)C(=O)NCC1CCN(c2cnn(C)c(=O)c2)CC1` (stereo not given) | 5.455 | -2.155 | 0.009868 |
| `CCCc1cc(C(=O)N(CC)Cc2ccncc2)[nH]n1` | 3.049 | 4.106 | -8.157 |
| `Cc1nn(C)c(C)c1C1CCCN1C(=O)CCCc1ccccn1` (stereo not given) | 0 | 22.92 | -7.531 |
| `CN(CC(O)C(F)(F)F)C(=O)Nc1cccc(C(F)F)c1` (stereo not given) | 3.694 | 2.352 | -18.18 |
| `Cc1ccc(NC(=O)N(C)Cc2cnn(C)c2)c(C)c1` | -5.239 | -5.932 | 8.254 |
| `CN1CCOC(CNCC(=O)NCCC2=CCCCC2)C1` (stereo not given) | 43.18 and 4.233 | 9.305 | -49.93 |
| `N#CC1COCCN1S(=O)(=O)c1ccc2ccccc2c1` (stereo not given) | 3.571 | -2.414 | 16.91 |
| `CN(C)CCN1CC2(CCCN(c3ccc(Cl)cn3)C2)CCC1=O` (stereo not given) | 0 | -5.137 | -9.75 |
| `Cc1cnn(C2CCCN(C(=O)CCc3c(C)noc3C)C2)c1` (stereo not given) | -3.509 | -2.257 | 1.928 |
| `O=C(CCNCc1cc(O)c2cc(F)ccc2n1)N1CCCC1` | -4.268 | 4.768 | 2.586 |
| `OC1CCN(c2ccccc2NCc2nc(-c3cccs3)no2)CC1` | -4.831 | -6.909 | -26.94 |
| `Cc1c(C2CC(=O)Nc3c2cnn3C(C)C)cnn1C` (stereo not given) | 6.659 | 5.91 | -19.1 |
| `CSCCCNc1nccc(-c2cc(C(=O)O)ccn2)n1` | 11.73 | -1.509 | -15.18 |
| `Cc1ccc(NC2CCN(C(=O)c3ccc(C#N)cc3)CC2)nn1` | 9.068 | 2.224 | 1.823 |
| `CNC(=O)NCCc1csc2ccccc12` | 0.7212 | 4.68 | 9.878 |
| `CCC(NCCn1cc(C)cn1)C(=O)Nc1cc(C)on1` (stereo not given) | 0.8589 | -1.069 | -4.552 |
| `CC(=O)N1CCCN(C(=O)c2ccc(Cn3ccccc3=O)o2)CC1` | 5.604 | -4.354 | -18.61 |
| `Cc1cccc(CN2CCCC3(CCN(C4CCSCC4)C3)C2=O)c1` (stereo not given) | -19.39 | 4.056 | 11.85 |
| `CC(C)c1nc(C2CCCN2CCN2CCCCC2)no1` (stereo not given) | 3.89 | -0.9181 | -4.209 |
| `CCN(CC)C(=O)CNC(=O)N1CCC(c2ccccc2)C1` (stereo not given) | -4.822 | -5.705 | -5.054 |
| `CCCN(Cc1ccc(C#N)cc1)Cc1nnsc1Cl` | - | 7.224 | 25.27 |
| `CCN(c1ccsc1C(=O)N1CCSCC1)S(=O)(=O)c1ccccc1` | 3.944 | 2.673 | 5.628 |
| `CCOC(=O)CNC(=O)N1CCCC(CNC(=O)c2ccco2)C1` (stereo not given) | -4.969 | -0.6606 | -11.09 |
| `CC1CCCN(Cc2c(C3CC3)n(CC(=O)N(C)C)c3ncccc23)C1` (stereo not given) | -1.35 | -1.447 | -5.762 |
| `CNC(=O)c1cnc2n1CCN(Cc1cccnc1)C2` | 4.713 | 0.549 | 13.75 |

Once more, the final 6:

SMILES	A	B	C
CCN(CC)C(=O)CNC(=O)N1CCC(c2ccccc2)C1 (stereo not given)	-4.822	-5.705	-5.054
CCCN(Cc1ccc(C#N)cc1)Cc1nnsc1Cl	-	7.224	25.27
CCN(c1ccsc1C(=O)N1CCSCC1)S(=O)(=O)c1ccccc1	3.944	2.673	5.628
CCOC(=O)CNC(=O)N1CCCC(CNC(=O)c2ccco2)C1 (stereo not given)	-4.969	-0.6606	-11.09
CC1CCCN(Cc2c(C3CC3)n(CC(=O)N(C)C)c3ncccc23)C1 (stereo not given)	-1.35	-1.447	-5.762
CNC(=O)c1cnc2n1CCN(Cc1cccnc1)C2	4.713	0.549	13.75

Measurements from “University of Dundee, Small-Polar-MMV Screening Library” (2021), ChEMBL document CHEMBL3988442.